Results are given in words; binding and its absence hold for the method and conditions named. Some results given as binding are weak or reduced against the parent protein; the word gives no strength.
Columns and labels:
Experiment in all cases: native gel or EMSA
[1] = target: LSU A143W-R215A-D216A (LSU8mut) (C. reinhardtii) (UniProt P00877)
[2] = target: LSU E109A-R253A (LSU2mut) (C. reinhardtii) (UniProt P00877)
[3] = target: Rubisco Large Subunit (LSU) (C. reinhardtii (endogenous in C. reinhardtii cells)) (UniProt P00877)

Substance: LSU A143W-R215A-D216A (LSU8mut) (from UniProt P00877 3-475)
- binding [1]: binds

Substance: LSU E109A-R253A (LSU2mut) (from UniProt P00877 3-475)
- binding [2]: no binding

Substance: Rubisco Large Subunit (LSU) (from UniProt P00877 3-475)
- binding [3]: binds
